Measured values as given in paper PMC7800377.
These are yes or no findings as the source states them, for the method shown. Binding calls can cover weak binding; strength is not graded here. Tags and fused reporters may be left off the sequences shown.

Experiments:
[1] = molecular target: GCN4-SUN1 F671E (His6-GCN4 fusion of SUN1 616–812 F671E) (human); assay: SEC; GCN4-SUN and MBP-KASH co-expressed, purified by amylose affinity and ion exchange, whole elution pooled and run on analytical gel filtration (Superdex 200 Increase 10/300 GL) in 20 mM Tris pH 8.0, 150 mM KCl, 2 mM DTT; fractions by SDS-PAGE; both purified
[2] = molecular target: GCN4-SUN1 I673E (His6-GCN4 fusion of SUN1 616–812 I673E) (human); assay: as above
[3] = molecular target: SUN domain of human SUN1 (amino acid residues 616–812), tags removed (human); assay: SEC-MALS; dilution series of SUN1-KASH complexes at 1.0, 0.1 and 0.01 mg/ml in 20 mM Tris pH 8.0, 150 mM KCl, 2 mM DTT; both purified
[4] = molecular target: SUN domain of human SUN1 (amino acid residues 616–812), tags removed (human); assay: crystal structure; SUN1-KASH4 complex at 25 mg/ml, sitting drops, 20°C; six copies of SUN1 and KASH4 per asymmetric unit; three zinc ions; 2.75 Å; both purified
[5] = molecular target: SUN domain of human SUN1 (amino acid residues 616–812), tags removed (human); assay: SEC-SAXS; samples at >10 mg/ml on Superdex 200 Increase 10/300 GL in 20 mM Tris pH 8.0, 150 mM KCl; scattering fitted with crystal structures and models; both purified
[6] = molecular target: SUN domain of human SUN1 (amino acid residues 616–812), tags removed (human); assay: crystal structure; SUN1-KASH5 complex at 25 mg/ml, sitting drops, 20°C; one copy of SUN1 and KASH5 per asymmetric unit; 1.54 Å; both purified

binding [1]	binding [2]	binding [3]	binding [4]	binding [5]	binding [6]	Binder
binds	binds					ASGGPCCSHARIPRTPYLVLSYVNGLPPV (domain or fragment, UniProt Q8N205 376-404) [MBP-KASH4 (His6-MBP fusion of the KASH domain of human Nesprin-4, residues 376–404)]
		binds	binds	binds		ASGGPCCSHARIPRTPYLVLSYVNGLPPV (domain or fragment, UniProt Q8N205 376-404) [KASH domain of human Nesprin-4 (KASH4, amino acid residues 376–404), tags removed]
binds	binds					GPSPPPTWPHLQLCYLQPPPV (domain or fragment, UniProt Q8N6L0 542-562) [MBP-KASH5 (His6-MBP fusion of the KASH domain of human KASH5, residues 542–562)]
				binds	binds	GPSPPPTWPHLQLCYLQPPPV (domain or fragment, UniProt Q8N6L0 542-562) [KASH domain of human KASH5 (amino acid residues 542–562), tags removed]
